Assay results as given in patent US20180370940A1, “SALICYLIC ACID DERIVATIVE, METHOD FOR PREPARING SAME, AND COSMETIC COMPOSITION FOR WHITENING COMPRISING SAME” (AMOREPACIFIC CORPORATION, priority 2015, published 2018).
Some of these results come from one statement about several compounds together.

Each compound was assayed on Mushroom-derived tyrosinase (assay: Inhibitory effect on tyrosinase activity (mushroom tyrosinase, L-tyrosine substrate, absorbance at 490 nm)). Details: as compared to methylsalicylic acid, methoxysalicylic acid, and kojic acid.
Format: biochemical
Protocol: In order to investigate the tyrosinase activity inhibitory effect of the salicylic acid derivatives prepared in Examples 1 to 6, the following experiment was conducted. Mushroom-derived tyrosinase and tyrosine were purchased from Sigma Chemical. Each sample was treated with 150 microliters of 0.1 M phosphate buffer (pH 6.5), 8 microliters of mushroom tyrosinase (2,100 units/ml, 0.05 M phosphate buffer, pH 6.5) and 36 microliters of 1.5 mM L-tyrosine by concentration. After the enzymatic reaction was carried out at 37° C. for 20 minutes, the activity of tyrosinase was measured by measuring the absorbance at 490 nm using a microplate reader (Bio-Rad 3550, Richmond, Calif., U.S.A.). The inhibitory effect of tyrosinase of the salicylic acid derivatives prepared in Examples 1 to 6 was determined based on the following Equation (1). Tyrosinase inhibition ratio (%)=100−((Reaction absorbance of each sample/reaction absorbance of the control group)×100) [Equation 1] The concentration of each test substance which decreased the activity of tyrosinase by 50% was determined by the above Equation, and the obtained results are shown in Table 1.

Inhibitory effect on tyrosinase activity compared to starting compounds (in words), greatly enhanced inhibitory effect:
Cc1cccc(C(=O)OCc2cc(=O)c(O)co2)c1O [Compound of Example 1, 2-hydroxy-3-methyl-benzoic acid 5-hydroxy-4-oxo-4H-pyran-2-ylmethyl ester]
COc1ccc(C(=O)OCc2cc(=O)c(O)co2)c(O)c1 [Compound of Example 5, 2-hydroxy-4-methoxy-benzoic acid 5-hydroxy-4-oxo-4H-pyran-2-ylmethyl ester]
Cc1ccc(C(=O)OCc2cc(=O)c(O)co2)c(O)c1 [Compound of Example 2, 2-hydroxy-4-methyl-benzoic acid 5-hydroxy-4-oxo-4H-pyran-2-ylmethyl ester]
Cc1ccc(O)c(C(=O)OCc2cc(=O)c(O)co2)c1 [Compound of Example 3, 2-hydroxy-5-methyl-benzoic acid 5-hydroxy-4-oxo-4H-pyran-2-ylmethyl ester]
COc1cccc(C(=O)OCc2cc(=O)c(O)co2)c1O [Compound of Example 4, 2-hydroxy-3-methoxy-benzoic acid 5-hydroxy-4-oxo-4H-pyran-2-ylmethyl ester]
COc1ccc(O)c(C(=O)OCc2cc(=O)c(O)co2)c1 [Compound of Example 6, 2-Hydroxy-5-methoxy-benzoic acid 5-hydroxy-4-oxo-4H-pyran-2-ylmethyl ester]
